Measurements from PubChem BioAssay AID1671190 (National Center for Advancing Translational Sciences (NCATS), 2021).
Hit rate of the full screen: of about 580,000 compounds, about 6,100 (1.1%) were called active. Inconclusive means that the source gave no clear call. Such entries were picked first, then a sample of the others. The call rests on the fitted dose curve; in most records, active means well fitted inhibition curve with a large enough effect; inconclusive means small, poorly fitted or top-dose-only effect, or another doubt; inactive means no such curve, though single readings can be large or run the other way. Potencies of inconclusive entries are doubtful fits and often do not repeat.

By UniProt entry, the sequences of proteins in these tests, tags left out. Where a name states a change or a piece, a line headed by the entry shows the natural chain unless it says otherwise.
UniProt P18054: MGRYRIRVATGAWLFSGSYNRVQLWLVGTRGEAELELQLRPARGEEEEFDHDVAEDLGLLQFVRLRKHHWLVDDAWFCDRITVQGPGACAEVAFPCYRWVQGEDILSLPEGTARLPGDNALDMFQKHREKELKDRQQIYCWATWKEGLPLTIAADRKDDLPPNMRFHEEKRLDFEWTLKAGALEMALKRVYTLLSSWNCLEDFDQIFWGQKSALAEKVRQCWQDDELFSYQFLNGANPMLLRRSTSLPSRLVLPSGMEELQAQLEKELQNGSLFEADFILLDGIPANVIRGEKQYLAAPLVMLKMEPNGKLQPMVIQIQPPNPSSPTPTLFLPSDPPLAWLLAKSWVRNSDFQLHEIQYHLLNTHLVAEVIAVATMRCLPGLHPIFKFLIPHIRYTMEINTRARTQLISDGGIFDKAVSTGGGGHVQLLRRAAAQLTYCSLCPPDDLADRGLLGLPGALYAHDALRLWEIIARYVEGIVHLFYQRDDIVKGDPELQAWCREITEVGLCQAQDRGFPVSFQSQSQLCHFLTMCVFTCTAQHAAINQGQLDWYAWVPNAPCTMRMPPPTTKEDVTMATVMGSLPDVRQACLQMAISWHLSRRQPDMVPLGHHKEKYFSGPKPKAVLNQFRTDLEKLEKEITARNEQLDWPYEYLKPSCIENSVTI

Target: Polyunsaturated fatty acid lipoxygenase ALOX12 (Homo sapiens) (UniProt P18054)
Assay: Primary qHTS assay for inhibitors of human arachidonate 12S-lipoxygenase (ALOX12): Round 2
Details: purified 12hLO, xylenol orange hydroperoxide absorbance; activity change, negative = inhibition: at 108 µM (top of the series) unless noted
Method in brief: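 Purified human 12hLO at 150 nM in 25 mM Hepes, 0.01% Triton X-100, pH 7.0, preincubated 15 min at room temperature with compound. Reaction started with 40 uM arachidonic acid, 30 min at room temperature. Hydroperoxide measured by Fe-xylenol orange, 573/405 nm absorbance ratio.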
On the % scale 0 is the no-effect control and ±100 the full control effect; potency means the concentration at half of the fitted maximal effect.

**Q.** With `N#C/C(=C/c1ccco1)c1nc2ccccc2[nH]1` as the compound, how does the Potency read?
**A.** Its Potency is active: 39.8 µM.

**Q.** Which “activity change, negative = inhibition” value does the source give for `CCCCCC(=O)N1C[C@H](n2cc(-c3ccc(F)cc3)nn2)[C@@H](O)C[C@@H]1c1ccc(Cl)cc1` here?
**A.** The value was inactive: -14.7%.

**Q.** `Cc1ccc(SCC(=O)NCc2ccco2)cc1` was tested. Which Potency did it give?
**A.** Its Potency is inconclusive: 7.94 µM [inhibitor, full curve, poor fit].

**Q.** Which Potency does the source give for `COc1ccc(C(=O)O)cc1S(=O)(=O)NCCCN1CCCC1=O` here?
**A.** The Potency was inconclusive: 44.7 µM [inhibitor, partial curve, poor fit].

**Q.** For `Oc1ccc(N=Cc2ccc3ccccc3c2)cc1`, which Potency is on record?
**A.** Its Potency is inconclusive: 5.62 µM [inhibitor, partial curve, poor fit].

**Q.** For `O=C1NC(=O)/C(=C/c2cc3c(cc2Br)OCO3)S1`, which Potency is on record?
**A.** The Potency was inconclusive: 50.1 µM [inhibitor, partial curve, poor fit].

**Q.** With `COc1ccc(NC(=O)CN2C(=O)NC(c3ccc(Cl)cc3)C3=C2COC3=O)cc1Cl` (stereo not drawn) as the compound, how does the Potency read?
**A.** Its Potency is inconclusive: 31.6 µM [inhibitor, partial curve].

**Q.** How did the “activity change, negative = inhibition” value turn out when `CC(C(=O)Nc1ccccc1-c1ccccc1)N(C)Cc1nc2ccccc2c(=O)[nH]1` (stereo not drawn) was run?
**A.** Its value is inactive: 45.5%.

**Q.** Which “activity change, negative = inhibition” value does the source give for `COc1cc(NC(=O)Cc2ccccc2)cc(OC)c1` here?
**A.** The value was inactive: 0%.

**Q.** `CCCOc1ccc(C2c3c(oc4ccccc4c3=O)C(=O)N2CCCN2CCOCC2)cc1` (stereo not drawn) was tested. Which Potency did it give?
**A.** Its Potency is inconclusive: 50.1 µM [inhibitor, partial curve, poor fit].

**Q.** `CC(OC(=O)COc1ccccc1Cc1ccccc1)C(=O)N(C)c1ccccc1` (stereo not drawn) was tested. Which Potency did it give?
**A.** Its Potency is inconclusive: 50.1 µM [inhibitor, partial curve, poor fit].

**Q.** For `CCOC(=O)C1=CCN(S(=O)(=O)c2ccccc2F)C1c1ccc(Cl)cc1` (stereo not drawn), which “activity change, negative = inhibition” value is on record?
**A.** The value was inactive: -3.65%.

**Q.** Which “activity change, negative = inhibition” value does the source give for `Cc1sc2ncnc(SCc3ccc(C(=O)O)cc3)c2c1C` here?
**A.** The value was inactive: -12.7%.

**Q.** For `CC1CN(CCOCCSc2ccc(Cl)cc2)CC(C)O1` (stereo not drawn), which Potency is on record?
**A.** Its Potency is inconclusive: 35.5 µM [inhibitor, partial curve, poor fit].

**Q.** Which Potency does the source give for `Cc1ccccc1-c1cc(C(=O)Nc2nn[nH]n2)c2ccccc2n1` here?
**A.** Its Potency is inconclusive: 3.16 µM [inhibitor, full curve, poor fit].

**Q.** `O=C(/C=C/c1cccc(Cl)c1Cl)c1ccc(OC(F)F)cc1` was tested. Which Potency did it give?
**A.** The Potency was inconclusive: 35.5 µM [inhibitor, partial curve, poor fit].

**Q.** `CN(CCc1ccccc1)C(=O)c1ccc(NC(=O)Cc2cccc(NC(=O)C3CCN(C(=O)C4CC4)CC3)c2)cc1` was tested. Which “activity change, negative = inhibition” value did it give?
**A.** Its value is inactive: -13.9%.

**Q.** `CCc1nccn1CCC(=O)NC1CC(C)(C)Cc2c1cnn2-c1ccc(OC)cc1` (stereo not drawn) was tested. Which Potency did it give?
**A.** The Potency was inconclusive: 3.98 µM [inhibitor, full curve, poor fit].

**Q.** With `Cc1ccc(C(=O)N(Cc2cc3cccc(C)c3nc2N2CCC(O)CC2)C2CC2)cc1` as the compound, how does the Potency read?
**A.** The Potency was inconclusive: 79.4 µM [inhibitor, single point].

**Q.** `COc1ccc2[nH]cc(CCNc3cc(-c4c(C)noc4C)ncn3)c2c1` was tested. Which Potency did it give?
**A.** Its Potency is inconclusive: 44.7 µM [inhibitor, partial curve, poor fit].

**Q.** With `Cc1cccn2c(=O)c3cc(C(=O)NC4CCCC4)c(=N)n(CC4CCCO4)c3nc12` (stereo not drawn) as the compound, how does the “activity change, negative = inhibition” value read?
**A.** Its value is inactive: -27.9%.

**Q.** How did the Potency turn out when `O=c1c2ccccc2nc(SCc2nc(-c3ccccc3)no2)n1CCCO` was run?
**A.** Its Potency is inconclusive: 39.8 µM [inhibitor, partial curve, poor fit].

**Q.** With `COc1ccc(CC(=O)Nc2ccc(N3CCCC3)c(C)c2)cc1` as the compound, how does the Potency read?
**A.** The Potency was inconclusive: 89.1 µM [inhibitor, partial curve, poor fit].

**Q.** How did the “activity change, negative = inhibition” value turn out when `CC(=O)Nc1cc2c3c(c1)CCC(=O)N3CCC2` was run?
**A.** The value was inactive: -2.42%.

**Q.** For `Nc1ccccc1Nc1c(F)c(F)nc(F)c1Cl`, which “activity change, negative = inhibition” value is on record?
**A.** The value was inactive: -0.983%.

**Q.** `COc1ncc2ncc(=O)n(Cc3cccs3)c2n1` was tested. Which Potency did it give?
**A.** The Potency was inconclusive: 112 µM [inhibitor, partial curve, poor fit].

**Q.** With `CCC(c1cccs1)N1C(=O)[C@H]2CN(S(=O)(=O)c3cc(C)ccc3C)C[C@H]2C1=O` (stereo partly drawn) as the compound, how does the “activity change, negative = inhibition” value read?
**A.** Its value is inactive: 0.879%.

**Q.** `COc1ccc(CCC(C(O)C(F)(F)F)S(=O)c2ccccc2)cc1` (stereo not drawn) was tested. Which Potency did it give?
**A.** The Potency was inconclusive: 11.2 µM [inhibitor, full curve].

**Q.** `NC(=O)c1cc[nH]c1C1CCCN(S(=O)(=O)c2ccc3c(c2)CCC3)C1` (stereo not drawn) was tested. Which Potency did it give?
**A.** Its Potency is inconclusive: 39.8 µM [inhibitor, partial curve].

**Q.** With `Cc1cc(C)[n+](-c2ccc(Oc3ccccc3)c(S(=O)(=O)[O-])c2)[nH]1` as the compound, how does the Potency read?
**A.** The Potency was inconclusive: 31.6 µM [inhibitor, single point].

**Q.** `O=C(Nc1ccccc1)c1cc(C2CCCCN2S(=O)(=O)Cc2cccc(C(F)(F)F)c2)on1` (stereo not drawn) was tested. Which “activity change, negative = inhibition” value did it give?
**A.** Its value is inactive: 10.2%.

**Q.** How did the “activity change, negative = inhibition” value turn out when `COc1ccc(/C=C/C(=O)OCC(=O)Nc2cc3oc4ccccc4c3cc2OC)cc1` was run?
**A.** Its value is inactive: -0.92%.

**Q.** How did the “activity change, negative = inhibition” value turn out when `CN(C)C(=O)C(NCCc1c[nH]c2ccccc12)c1ccccc1` (stereo not drawn) was run?
**A.** Its value is inactive: 0.261%.

**Q.** For `COCCOc1ccc(C(=O)/C=C/c2ccc(C(=O)OC)o2)cc1`, which Potency is on record?
**A.** Its Potency is inconclusive: 5.01 µM [inhibitor, full curve].

**Q.** Which Potency does the source give for `O=C(Nc1ccc(Cl)cc1)NC1CCCN(c2nc3ncccc3o2)C1` (stereo not drawn) here?
**A.** The Potency was inconclusive: 79.4 µM [inhibitor, single point].

**Q.** How did the Potency turn out when `COC(=O)c1c(-c2csc(NC3CC3)n2)c(C)n(C(C)C)c1C` was run?
**A.** Its Potency is inconclusive: 22.4 µM [inhibitor, partial curve, poor fit].

**Q.** How did the “activity change, negative = inhibition” value turn out when `CCc1ccc(C(=O)NC2CCN(c3cc(-c4ccccc4)[nH]n3)CC2)cc1` was run?
**A.** Its value is inactive: 20.8%.

**Q.** With `CC(NC(=O)c1cc(=O)c2ccccc2o1)c1ccccc1` (stereo not drawn) as the compound, how does the Potency read?
**A.** The Potency was inconclusive: 100 µM [inhibitor, partial curve, poor fit].

**Q.** `Cc1cc2nc(C(C)(C)C)c(Cc3cccc(F)c3)n2c(C)c1Br` was tested. Which Potency did it give?
**A.** Its Potency is inconclusive: 44.7 µM [inhibitor, partial curve, poor fit].

**Q.** Which Potency does the source give for `COc1ccccc1CNC(=O)C(NS(=O)(=O)c1ccc2c(c1)CCN2C(C)=O)C(C)C` (stereo not drawn) here?
**A.** The Potency was inconclusive: 100 µM [inhibitor, single point].

**Q.** `COC(=O)Cn1c(CN2CCN(c3cc(Cl)ccc3C)CC2)nc2c1c(=O)[nH]c(=O)n2C` was tested. Which “activity change, negative = inhibition” value did it give?
**A.** The value was inactive: -23.2%.

**Q.** `CCN1CCN(CCOc2ccc3c(=O)c(-c4ccc(OC)cc4)coc3c2C)CC1` was tested. Which Potency did it give?
**A.** The Potency was inconclusive: 39.8 µM [inhibitor, partial curve, poor fit].

**Q.** Which “activity change, negative = inhibition” value does the source give for `O=C(c1ccc(Cl)cc1)N1CCC2CC1c1cc(-c3ccccc3)ccc12` (stereo not drawn) here?
**A.** The value was inactive: -13.8%.
